These are yes or no findings as the source states them, for the method shown. Binding seen in cells or lysates may run through a third protein. Some results given as binding are weak or reduced against the parent protein; the word gives no strength.

Sequences of proteins named here, by UniProt entry; tags and fusion partners are left off.
UniProt Q969H0: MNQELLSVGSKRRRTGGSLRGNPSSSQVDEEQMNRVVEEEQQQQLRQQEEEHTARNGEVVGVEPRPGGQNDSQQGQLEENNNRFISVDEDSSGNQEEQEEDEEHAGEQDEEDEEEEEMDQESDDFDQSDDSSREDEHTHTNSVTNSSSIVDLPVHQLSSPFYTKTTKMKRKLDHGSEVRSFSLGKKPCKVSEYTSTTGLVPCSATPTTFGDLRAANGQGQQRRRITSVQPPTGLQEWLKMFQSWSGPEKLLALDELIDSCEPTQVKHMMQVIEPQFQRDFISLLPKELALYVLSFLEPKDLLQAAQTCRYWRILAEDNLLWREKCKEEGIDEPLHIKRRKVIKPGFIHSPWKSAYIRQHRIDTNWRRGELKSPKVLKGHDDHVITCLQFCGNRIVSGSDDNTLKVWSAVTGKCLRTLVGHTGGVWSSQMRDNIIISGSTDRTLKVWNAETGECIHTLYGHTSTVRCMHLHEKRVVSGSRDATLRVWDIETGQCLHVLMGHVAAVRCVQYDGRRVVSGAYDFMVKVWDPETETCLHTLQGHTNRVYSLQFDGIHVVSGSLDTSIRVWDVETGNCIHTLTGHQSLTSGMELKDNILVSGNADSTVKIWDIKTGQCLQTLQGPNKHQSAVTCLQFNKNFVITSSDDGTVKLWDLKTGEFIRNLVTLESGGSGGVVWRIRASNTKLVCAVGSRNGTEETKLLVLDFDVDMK

Data on one molecule can be found in article PMC7167255.

In this assay the target is F-box and WD40 domain protein 7 (FBXW7) (human (endogenous in endometrial cancer cell lines)) (UniProt Q969H0). The experiment in a line: co-IP; EC cells lysed in RIPA buffer; 4 ug primary antibody with 1000 ug total protein, 4°C for 8 h; protein A Sepharose beads, 4°C for 1 h; Western blot. (A western blot detects proteins with antibodies after separation by electrophoresis.)

B1: Serine/threonine/tyrosine interacting protein (STYX) (protein, UniProt Q8WUJ0 1-223)
chain: MEDVKLEFPSLPQCKEDAEEWTYPMRREMQEILPGLFLGPYSSAMKSKLPVLQKHGITHIICIRQNIEANFIKPNFQQLFRYLVLDIADNPVENIIRFFPMTKEFIDGSLQMGGKVLVHGNAGISRSAAFVIAYIMETFGMKYRDAFAYVQERRFCINPNAGFVHQLQEYEAIYLAKLTIQMMSPLQIERSLSVHSGTTGSLKRTHEEEDDFGTMQVATAQNG
Consider B1, for which the binding result is given as “binds”.
